# Experimental data: publication PMC5036024
# No constants are given. Whether binding was seen depends on the method and setting. Some results given as binding are weak or reduced against the parent protein; the word gives no strength. For part of these data: Sequences can lack the tags named with a protein.
# Biological target: T1, Ska2 (His-GST tagged, bait of the co-purification) (human) (UniProt Q8WVK7)
# T1 sequence: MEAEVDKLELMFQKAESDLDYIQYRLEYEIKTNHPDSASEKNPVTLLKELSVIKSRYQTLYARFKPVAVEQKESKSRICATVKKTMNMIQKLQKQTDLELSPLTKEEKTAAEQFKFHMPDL
# Test: co-purification (glutathione affinity by the GST of Ska2, then SEC); three plasmids co-transformed in E. coli BL21 Gold; glutathione sepharose in batch, washes with 500 mM NaCl and 1 M NaCl; eluted with glutathione, tags cleaved with TEV; Superose 6 in 20 mM Tris-HCl pH 8, 100 mM NaCl, 5 mM DTT
row,Substance,binding
1,"Ska1, subunit of the wt Ska complex (from UniProt Q96BD8 1-255)",binds
2,Ska3 D321/E323/D326K (recombinant subunit) (from UniProt Q8IX90 1-412),binds
3,Ska3 K199/202A (recombinant subunit) (from UniProt Q8IX90 1-412),binds
4,Ska3 S394/K399A (recombinant subunit) (from UniProt Q8IX90 1-412),binds
5,Ska3 1-101 (from UniProt Q8IX90 1-101) (domain or fragment),binds

# Now from value to substance:
row,binding,Substance
1,binds,Ska3 1-195 (from UniProt Q8IX90 1-195) (domain or fragment)
2,binds,Ska3 1-151 (from UniProt Q8IX90 1-151) (domain or fragment)
3,binds,"Ska3 (V58I), subunit of the wt Ska complex (from UniProt Q8IX90 1-412)"

# Biological target: Ska1, subunit of the wt Ska complex (human) (UniProt Q96BD8)
# Test: cross-linking; 6 μM Ska complex cross-linked to 10 μM microtubules with the zero-length cross-linker EDC and Sulfo-NHS; higher molecular weight gel band digested, mass spectrometry (CLMS); both purified
row,binding,Substance
1,binds,"Ska3 (V58I), subunit of the wt Ska complex (from UniProt Q8IX90 1-412)"
